The source of these data is publication doi:10.1101/2020.05.06.071340.

By UniProt entry, the sequences of proteins in these tests, tags left out. Residues count along the entry.
UniProt Q39057, 306-348: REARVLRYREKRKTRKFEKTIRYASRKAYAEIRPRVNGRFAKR

Changes are numbered by the printed parent chain. For some of these results: Weaker means in comparison with the reference protein, sequence or condition of that experiment. For some of these results: Where a protein sequence is shown, tags need not be part of it. For some of these results: Construct, isoform or probe ends are uncertain for at least one entry. For some of these results: No signal at the amounts used counts as a negative. For some of these results: At least one verdict was read from the data and is not stated in words by the source.

The target of one data set is CO-CCT (Arabidopsis) (UniProt Q39057). The data set can be described thus: EMSA. The conditions noted are these: residues 306-348. (In general: A gel shift assay detects complexes by their altered migration in electrophoresis.)
In the next data set the test system is GST. The data set can be described thus: EMSA.
A further data set has as its system LUX-GST. The data set can be described thus: EMSA.
A further data set has as its target T1, PRR5-CCT (Arabidopsis) (UniProt Q6LA42).
T1 sequence (looked up): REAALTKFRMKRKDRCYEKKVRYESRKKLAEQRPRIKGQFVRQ
The data set can be described thus: EMSA. To be noted: residues 509-551.

Data set [1] has as its target T2, TOC1-CCT A562D (Arabidopsis) (UniProt Q9LKL2).
T2 sequence (looked up): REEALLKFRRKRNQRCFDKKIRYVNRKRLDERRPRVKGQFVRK
The data set can be described thus: EMSA. To be noted: mildly impaired; residues 533-575.

In data set [2] the target is T3, TOC1-CCT K551A (Arabidopsis) (UniProt Q9LKL2).
T3 sequence (looked up): T2 sequence (looked up) with K19A, D30A
The data set can be described thus: EMSA. The conditions noted are these: no significant change; residues 533-575.

The target of data set [3] is T4, TOC1-CCT K552A (Arabidopsis) (UniProt Q9LKL2).
T4 sequence (looked up): T2 sequence (looked up) with K20A, D30A
The data set can be described thus: EMSA. The conditions noted are these: mildly impaired; residues 533-575.

The target in data set [4] is T5, TOC1-CCT K559A (Arabidopsis) (UniProt Q9LKL2).
T5 sequence (looked up): T2 sequence (looked up) with K27A, D30A
The data set can be described thus: EMSA. The conditions noted are these: no significant change; residues 533-575.

The target of data set [5] is T6, TOC1-CCT R554A (Arabidopsis) (UniProt Q9LKL2).
T6 sequence (looked up): T2 sequence (looked up) with R22A, D30A
The data set can be described thus: EMSA. To be noted: no significant change; residues 533-575.

Data set [6] deals with T7, TOC1-CCT R558A (Arabidopsis) (UniProt Q9LKL2).
T7 sequence (looked up): T2 sequence (looked up) with R26A, D30A
The data set can be described thus: EMSA. The conditions noted are these: no significant change; residues 533-575.

Data set [7] deals with T8, TOC1-CCT R560A (Arabidopsis) (UniProt Q9LKL2).
T8 sequence (looked up): T2 sequence (looked up) with R28A, D30A
The data set can be described thus: EMSA. The conditions noted are these: mildly impaired; residues 533-575.

In data set [8] the target is T9, TOC1-CCT R564A (Arabidopsis) (UniProt Q9LKL2).
T9 sequence (looked up): T2 sequence (looked up) with D30A, R32A
The data set can be described thus: EMSA. To be noted: no significant change; residues 533-575.

For data set [9], the target named is T10, TOC1-CCT R565A (Arabidopsis) (UniProt Q9LKL2).
T10 sequence (looked up): T2 sequence (looked up) with D30A, R33A
The data set can be described thus: EMSA. To be noted: no significant change; residues 533-575.

Data set [10] addresses T11, TOC1-CCT-5c K551A,K552A,K559A (Arabidopsis) (UniProt Q9LKL2).
T11 sequence (looked up): T2 sequence (looked up) with K19A, K20A, K27A, D30A
The data set can be described thus: EMSA. To be noted: significant reduction; residues 533-575.

For data set [11], the target named is T12, TOC1-CCT-6c R554A,R558A,R560A,R564A,R565A (Arabidopsis) (UniProt Q9LKL2).
T12 sequence (looked up): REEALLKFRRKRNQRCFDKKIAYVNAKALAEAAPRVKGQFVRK
The data set can be described thus: EMSA. To be noted: significant reduction; residues 533-575.

For data set [12], the target named is T13, TOC1-CCT-9m K551A,K552A,R554A,R558A,K559A,R560A,A562D,R564A,R565A (Arabidopsis) (UniProt Q9LKL2).
T13 sequence (looked up): T12 sequence (looked up) with K19A, K20A, K27A, A30D
The data set can be described thus: EMSA. The conditions noted are these: lost almost all binding; residues 533-575.

Another data set addresses CCT533-547 (Arabidopsis) (UniProt Q9LKL2). The data set can be described thus: NMR. To be noted: 5 mM Mg2+, lesser broadening; residues 533-547.
Another data set deals with CCT550-565 (Arabidopsis) (UniProt Q9LKL2). The data set can be described thus: NMR. To be noted: 5 mM Mg2+, lesser broadening, intermolecular NOEs; residues 550-565.
The target of another data set is CCTC (Arabidopsis) (UniProt Q9LKL2). The data set can be described thus: NMR. The conditions noted are these: 5 mM Mg2+, weak shift perturbation only, as for SUMO control; residues 567-590.

Turning to “AAAUAAAUGGAGGGGAAAAAUAAAU [G-rich RNA probe]”, the binding result was “binds more weakly” with CO-CCT (Arabidopsis); “no binding” in the data set with GST; “no binding” with LUX-GST; “binds more weakly” with PRR5-CCT (Arabidopsis); “binds more weakly” in data set [1]; “binds” in data set [2]. The binding result in data set [3] was “binds more weakly”; in data set [4], “binds”; in [5], “binds”; in data set [6], “binds”; in data set [7], “binds more weakly”; in data set [8], “binds”. Moreover, the binding result in [9] is recorded as “binds”; in data set [10], “binds more weakly”; in data set [11] it was “binds more weakly”; in data set [12] it was “binds more weakly”.
Take UGGAGGGGA [NMR RNA]: the binding result with CCT533-547 (Arabidopsis), in the data set with CCT550-565 (Arabidopsis) and with CCTC (Arabidopsis) was “binds more weakly” each time.
